Test results: the supplement of paper PMC4604168 (melanoma cell lines)
The other results are listed elsewhere or left out. Single values are uncertain, as repeats are few or missing.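 Cells were imaged in 1,536-well plates, and nuclei stained with an antibody against cleaved PARP were counted against all DNA-stained nuclei to give the apoptosis fraction. Screening doses were chosen to leave most cells alive, and resting and induced cleaved-PARP levels differ strongly between cell lines.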

Key:
Assay in all cases: cleaved PARP positive nuclei fraction relative to DMSO control; melanoma cells; higher = more apoptosis
Conditions in all cases: library dose: low library concentration; 72 h
[1] = system: CBRC034 (line from a melanoma biopsy)
[2] = system: COLO792
[3] = system: COLO800
[4] = system: COLO829
[5] = system: G361
[6] = system: IPC-298
[7] = system: IST-MEL1
[8] = system: LB2518-MEL
[9] = system: LOXIMVI
[10] = system: MEL-HO
[11] = system: MZ2-MEL
[12] = system: MeWo
[13] = system: RPMI7951
[14] = system: RVH-421
[15] = system: SkMel28
[16] = system: SkMel2
[17] = system: SkMel30
[18] = system: UACC62

In the case of `Cc1ccc(Nc2nccc(N(C)c3ccc4c(C)n(C)nc4c3)n2)cc1S(N)(=O)=O` [Pazopanib] + C=C(c1ccc(C(=O)O)cc1)c1cc2c(cc1C)C(C)(C)CCC2(C)C [Bexarotene] (first compound 0.4 µM, partner dose 2 µM), the “cleaved PARP positive nuclei fraction” value [1] is reported as 62.6%, the “cleaved PARP positive nuclei fraction” value [2] is reported as 146% and the “cleaved PARP positive nuclei fraction” value [3] is reported as 130%. For the same compound, the “cleaved PARP positive nuclei fraction” value [4] was 81.9%, the “cleaved PARP positive nuclei fraction” value [5] was 223% and the “cleaved PARP positive nuclei fraction” value [6] was 105%. The “cleaved PARP positive nuclei fraction” value [7] was 73.7%, the “cleaved PARP positive nuclei fraction” value [8] was 98.3% and the “cleaved PARP positive nuclei fraction” value [9] was 78%. For the same compound, the “cleaved PARP positive nuclei fraction” value [10] was 153%, the “cleaved PARP positive nuclei fraction” value [11] was 72.8% and the “cleaved PARP positive nuclei fraction” value [12] was 46.2%. The “cleaved PARP positive nuclei fraction” value [13] was 52.4%, the “cleaved PARP positive nuclei fraction” value [14] was 51.9% and the “cleaved PARP positive nuclei fraction” value [15] was 43.9%. For the same compound, the “cleaved PARP positive nuclei fraction” value [16] was 50.8%, the “cleaved PARP positive nuclei fraction” value [17] was 58.2% and the “cleaved PARP positive nuclei fraction” value [18] was 40.4%.

`N#CC[C@H](C1CCCC1)n1cc(-c2ncnc3[nH]ccc23)cn1` [ruxolitinib] + Cc1cc(Nc2cc(N3CCN(C)CC3)nc(/C=C/c3ccccc3)n2)n[nH]1 [ENMD2076] (first compound 1 µM, partner dose 0.04 µM) was tested, and the “cleaved PARP positive nuclei fraction” value [1] was 117%, the “cleaved PARP positive nuclei fraction” value [2] was 139% and the “cleaved PARP positive nuclei fraction” value [3] was 75.6%. For the same compound, the “cleaved PARP positive nuclei fraction” value [4] was 90%, the “cleaved PARP positive nuclei fraction” value [5] was 112% and the “cleaved PARP positive nuclei fraction” value [6] was 83.7%. The “cleaved PARP positive nuclei fraction” value [7] was 157%, the “cleaved PARP positive nuclei fraction” value [8] was 54.4% and the “cleaved PARP positive nuclei fraction” value [9] was 103%. For the same compound, the “cleaved PARP positive nuclei fraction” value [10] was 101%, the “cleaved PARP positive nuclei fraction” value [11] was 102% and the “cleaved PARP positive nuclei fraction” value [12] was 326%. For the same compound, the “cleaved PARP positive nuclei fraction” value [13] was 119%, the “cleaved PARP positive nuclei fraction” value [14] was 68.1% and the “cleaved PARP positive nuclei fraction” value [15] was 74.1%. The “cleaved PARP positive nuclei fraction” value [16] was 58.2%, the “cleaved PARP positive nuclei fraction” value [17] was 32% and the “cleaved PARP positive nuclei fraction” value [18] was 56.8%.

With `Cc1cc(Nc2cc(N3CCN(C)CC3)nc(Sc3ccc(NC(=O)C4CC4)cc3)n2)n[nH]1` [Tozasertib] + COc1cc([C@@H]2c3cc4c(cc3[C@@H](O[C@@H]3O[C@@H]5CO[C@@H](C)O[C@H]5[C@H](O)[C@H]3O)[C@H]3COC(=O)[C@H]23)OCO4)cc(OC)c1O [etoposide] (first compound 0.006 µM, partner dose 0.02 µM) the “cleaved PARP positive nuclei fraction” value [1] was 76%, the “cleaved PARP positive nuclei fraction” value [2] was 78.8% and the “cleaved PARP positive nuclei fraction” value [3] was 157%. For the same compound, the “cleaved PARP positive nuclei fraction” value [4] was 91.7%, the “cleaved PARP positive nuclei fraction” value [5] was 129% and the “cleaved PARP positive nuclei fraction” value [6] was 43.7%. The “cleaved PARP positive nuclei fraction” value [7] was 63.1%, the “cleaved PARP positive nuclei fraction” value [8] was 201% and the “cleaved PARP positive nuclei fraction” value [9] was 88.7%. For the same compound, the “cleaved PARP positive nuclei fraction” value [10] was 282%, the “cleaved PARP positive nuclei fraction” value [11] was 33.5% and the “cleaved PARP positive nuclei fraction” value [12] was 66.8%. For the same compound, the “cleaved PARP positive nuclei fraction” value [13] was 33.6%, the “cleaved PARP positive nuclei fraction” value [14] was 67.3% and the “cleaved PARP positive nuclei fraction” value [15] was 28.9%. For the same compound, the “cleaved PARP positive nuclei fraction” value [16] was 44.6%, the “cleaved PARP positive nuclei fraction” value [17] was 178% and the “cleaved PARP positive nuclei fraction” value [18] was 127%.

For `Cc1ccc(Nc2nccc(N(C)c3ccc4c(C)n(C)nc4c3)n2)cc1S(N)(=O)=O` [Pazopanib] + Cc1cn(-c2cc(NC(=O)c3ccc(C)c(Nc4nccc(-c5cccnc5)n4)c3)cc(C(F)(F)F)c2)cn1 [nilotinib] (first compound 0.4 µM, partner dose 0.2 µM), the “cleaved PARP positive nuclei fraction” value [1] was 56.6%, the “cleaved PARP positive nuclei fraction” value [2] was 145% and the “cleaved PARP positive nuclei fraction” value [3] was 35.8%. For the same compound, the “cleaved PARP positive nuclei fraction” value [4] was 49.9%, the “cleaved PARP positive nuclei fraction” value [5] was 109% and the “cleaved PARP positive nuclei fraction” value [6] was 72.4%. The “cleaved PARP positive nuclei fraction” value [7] was 88%, the “cleaved PARP positive nuclei fraction” value [8] was 122% and the “cleaved PARP positive nuclei fraction” value [9] was 249%. For the same compound, the “cleaved PARP positive nuclei fraction” value [10] was 98.6%, the “cleaved PARP positive nuclei fraction” value [11] was 56.8% and the “cleaved PARP positive nuclei fraction” value [12] was 57.5%. The “cleaved PARP positive nuclei fraction” value [13] was 81.7%, the “cleaved PARP positive nuclei fraction” value [14] was 137% and the “cleaved PARP positive nuclei fraction” value [15] was 129%. The “cleaved PARP positive nuclei fraction” value [16] was 49.7%, the “cleaved PARP positive nuclei fraction” value [17] was 95.8% and the “cleaved PARP positive nuclei fraction” value [18] was 165%.

In the case of `O=C(/C=C/c1cccnc1)NCCCCC1CCN(C(=O)c2ccccc2)CC1` + Clc1ccc(Nc2nnc(Cc3ccncc3)c3ccccc23)cc1 [vatalanib] (first compound 0.01 µM, partner dose 2 µM), the “cleaved PARP positive nuclei fraction” value [1] is reported as 318%, the “cleaved PARP positive nuclei fraction” value [2] is reported as 347% and the “cleaved PARP positive nuclei fraction” value [3] is reported as 339%. The “cleaved PARP positive nuclei fraction” value [4] was 263%, the “cleaved PARP positive nuclei fraction” value [5] was 4800% and the “cleaved PARP positive nuclei fraction” value [6] was 73.5%. For the same compound, the “cleaved PARP positive nuclei fraction” value [7] was 194%, the “cleaved PARP positive nuclei fraction” value [8] was 218% and the “cleaved PARP positive nuclei fraction” value [9] was 201%. The “cleaved PARP positive nuclei fraction” value [10] was 435%, the “cleaved PARP positive nuclei fraction” value [11] was 327% and the “cleaved PARP positive nuclei fraction” value [12] was 167%. The “cleaved PARP positive nuclei fraction” value [13] was 40.4%, the “cleaved PARP positive nuclei fraction” value [14] was 62.1% and the “cleaved PARP positive nuclei fraction” value [15] was 204%. The “cleaved PARP positive nuclei fraction” value [16] was 1580%, the “cleaved PARP positive nuclei fraction” value [17] was 115% and the “cleaved PARP positive nuclei fraction” value [18] was 101%.

`Cc1cn(-c2cc(NC(=O)c3ccc(C)c(Nc4nccc(-c5cccnc5)n4)c3)cc(C(F)(F)F)c2)cn1` [nilotinib] + Nc1ncn([C@H]2C[C@H](O)[C@@H](CO)O2)c(=O)n1 [decitabine] (first compound 0.2 µM, partner dose 0.1 µM) was tested, and the “cleaved PARP positive nuclei fraction” value [1] was 62.6%, the “cleaved PARP positive nuclei fraction” value [2] was 83.5% and the “cleaved PARP positive nuclei fraction” value [3] was 112%. The “cleaved PARP positive nuclei fraction” value [4] was 151%, the “cleaved PARP positive nuclei fraction” value [5] was 71.1% and the “cleaved PARP positive nuclei fraction” value [6] was 51.8%. The “cleaved PARP positive nuclei fraction” value [7] was 157%, the “cleaved PARP positive nuclei fraction” value [8] was 120% and the “cleaved PARP positive nuclei fraction” value [9] was 136%. For the same compound, the “cleaved PARP positive nuclei fraction” value [10] was 130%, the “cleaved PARP positive nuclei fraction” value [11] was 149% and the “cleaved PARP positive nuclei fraction” value [12] was 165%. For the same compound, the “cleaved PARP positive nuclei fraction” value [13] was 103%, the “cleaved PARP positive nuclei fraction” value [14] was 181% and the “cleaved PARP positive nuclei fraction” value [15] was 90.8%. The “cleaved PARP positive nuclei fraction” value [16] was 43%, the “cleaved PARP positive nuclei fraction” value [17] was 69.8% and the “cleaved PARP positive nuclei fraction” value [18] was 49.6%.
